According to the supplement of paper PMC10727501:
This is one part of the list. Repeats in this data set agree poorly, so a single value says little.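 Free-swimming zebrafish larvae were assessed for O-bend response probability to dark flashes (naive: first five; training: remaining flashes across four 60-flash blocks; test: later 60-flash block) and for OMR turning toward alternating leftward/rightward LED motion. Six treated larvae were compared against sixty 0.1% DMSO controls; hits required |SSMD|≥2.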

test system: Danio rerio larvae (5 dpf, TLF); experiment: Prob-Naive (SSMD vs DMSO vehicle); higher = higher than vehicle (e.g. higher dark-flash O-bend response probability, or better optomotor performance); conditions: 10 µM; pre-incubation: 30-90 min

| Structure (SMILES) | Prob-Naive |
| --- | --- |
| CNC(=O)c1cc(Oc2ccc(NC(=O)Nc3cc(C(C)(C)C)nn3-c3ccc4ncccc4c3)c(F)c2)ccn1 [DCC-2036 (Rebastinib)] | 0.102 |
| CNC(=O)CN(CCN(CCN(CC(=O)[O-])CC(=O)NC)CC(=O)[O-])CC(=O)[O-].O.[Gd+3] [Gadodiamide] | 0.471 |
| COc1cccc2c1C(=O)c1c(O)c3c(c(O)c1C2=O)C[C@@](O)(C(=O)CO)C[C@H]3O[C@H]1C[C@H](N)[C@H](O)[C@H](C)O1.Cl [Doxorubicin (Adriamycin)] | 0.454 |
| CC1(C)S[C@@H]2[C@H](NC(=O)Cc3ccccc3)C(=O)N2[C@H]1C(=O)[O-].[Na+] [Penicillin G Sodium] | -0.18 |
| CC(C)(C)C(=O)OCOP(=O)(COCCn1cnc2c(N)ncnc21)OCOC(=O)C(C)(C)C [Adefovir Dipivoxil] | -0.141 |
| CCCCCCCCCCC[C@@H](C[C@@H]1OC(=O)[C@H]1CCCCCC)OC(=O)[C@H](CC(C)C)NC=O [Orlistat] | 0.184 |
| CCC[C@@H]1O[C@@H]2C[C@H]3[C@@H]4CCC5=CC(=O)C=C[C@]5(C)[C@@H]4[C@H](O)C[C@]3(C)[C@@]2(C(=O)CO)O1 [Budesonide] | 0.1 |
| CC(C)(S)[C@@H](N)C(=O)O [Penicillamine (Cuprimine)] | -0.142 |
| NC(=O)c1ccc(N(C(N)=O)c2c(F)cccc2F)nc1-c1ccc(F)cc1F | 0.319 |

Two records picked at random from those above:

| Structure (SMILES) | Prob-Naive |
| --- | --- |
| CC(C)(C)C(=O)OCOP(=O)(COCCn1cnc2c(N)ncnc21)OCOC(=O)C(C)(C)C [Adefovir Dipivoxil] | -0.141 |
| CNC(=O)CN(CCN(CCN(CC(=O)[O-])CC(=O)NC)CC(=O)[O-])CC(=O)[O-].O.[Gd+3] [Gadodiamide] | 0.471 |
